# Test results: patent US20180048011A1, “HIGH pH ORGANIC FLOW BATTERY” (President and Fellows of Harvard College, priority 2015, published 2018)
# Tests used:
# [1] = Full flow cell test, quinone negolyte vs. ferrocyanide posolyte; settings: negative electrolyte 1.2 g in 10 mL 2 M KOH
# Procedure: Cell testing was performed at 20° C. using solutions of 0.5 M 2,6-DHAQ in 2 M KOH, and 0.4 M K4Fe(CN)6 in 1 M KOH. These solutions were pumped through a flow cell constructed from graphite flow plates and carbon paper electrodes, which were separated by a Nafion membrane (FIGS. 12a and 12 b). A charging current of 0.1 A cm^−2 was applied to charge the cell, and polarization curves were measured at 10%, 50%, and 100% states of charge (SOC). The polarization curves (FIG. 13b) show peak galvanic power densities beyond 0.45 W cm^-2.
# The cell was cycled at a constant current density of ±0.1 A cm^-2 for 100 cycles (FIG. 14a). […] A 0.1% loss in capacity per cycle was observed during cycling, which appears to be a continuous loss of electro-active species over the 100 cycles (FIG. 14b). We explored three possible loss mechanisms: chemical decomposition, electrolyte crossover through the membrane, and leakage from the pumping system. […] This observation places an upper limit on crossover of 0.8% of the DHAQ, implying a crossover current density of <2.5 μA cm^-2 (FIGS. 16a and 16b). […] A source of leakage was readily apparent but not quantifiable at the exit of the humidified nitrogen bubbling through the negolyte to prevent energy loss by permeation of atmospheric oxygen. Coloration could also be found on the gaskets, indicating a likely site of electrolyte leakage (FIGS. 17a and 17b). […]
# [2] = FMN-ferrocyanide flow cell test; settings: for peak power density: room temperature
# Procedure: The positive electrolyte was prepared by dissolving potassium ferrocyanide trihydrate (1.9 g) and potassium ferricyanide (0.15 g) in 1 M KOH solution (11.25 mL) to afford a 0.4 M ferrocyanide +40 mM ferricyanide electrolyte solution. The negative electrolyte was prepared by dissolving riboflavin 5′ phosphate sodium salt (0.72 g) in 2 M KOH solution (3 mL) resulting a 0.5 M electrolyte solution.
# The negative electrolyte was prepared at a fully oxidized state. The positive electrolyte contained 9% oxidized species.
# (§1) Hardware from Fuel Cell Tech. (NM, Albuquerque) was used to assemble a zero-gap flow cell configuration, similar to previous reports (Aaron, D. S. et al. Journal of Power Sources 206, 450-453 (2012)), and shown schematically in FIG. 4. Serpentine flow pattern flow plates were used for both sides. A 5 cm^2 geometric surface area electrode comprised a stack of three pieces of SGL Sigracet GDL 10AA porous carbon, and a piece of Nafion 212 membrane served as the ion-selective membrane. The rest of the space between the plates was gasketed by Kalrez sheets. The electrolytes were fed into the cell through PFA tubing, at a rate of 60 mL/min controlled by Cole-Parmer Micropump peristaltic pumps.
# Before and during the test, the electrolytes were purged with UHP nitrogen to remove and then keep out atmospheric oxygen. […] Galvanostatic cycling shown in
# The positive electrolyte was prepared by dissolving potassium ferrocyanide trihydrate (3.2 g), sodium ferrocyanide decahydrate (3.6 g) and potassium ferricyanide (0.5 g) in 0.5 M KOH +0.5 M NaOH solution (15 mL) to afford a 1 M ferrocyanide +0.1 M ferricyanide electrolyte solution. The negative electrolyte was prepared by dissolving riboflavin 5′ phosphate sodium salt (2.4 g) in 4 M KOH solution (5 mL) resulting a 1 M electrolyte solution. The negative electrolyte was prepared in a fully oxidized state. The positive electrolyte contained 9% oxidized species.
# as §1, with “Teflon” for “Kalrez”, “gear” for “peristaltic”
# Before and during the test, the electrolytes were purged with UHP nitrogen to remove and then keep out atmospheric oxygen.
smiles,measurement,setting,value
"Cc1c(O)ccc2c1C(=O)c1ccc(O)c(C)c1C2=O [1,5-DMAQ, 1,5-dimethyl-2,6-dihydroxy-9,10-anthraquinone]",open circuit voltage at 50% state of charge,[1],1.34 volts
"Cc1cc2nc3c(=O)[nH]c(=O)nc-3n(C[C@@H](O)[C@@H](O)[C@@H](O)COP(=O)(O)O)c2cc1C [FMN, riboflavin 5′ phosphate]",battery voltage (open-circuit potential) at 50% state of charge,"[2]; 0.5 M FMN, 0.4 M ferrocyanide",above 1 V
same,peak power density,"[2]; 0.5 M FMN, 0.4 M ferrocyanide",above 0.2 W cm^-2
same,battery voltage (open-circuit potential) at 50% state of charge,"[2]; 1 M FMN, 1 M ferrocyanide",above 1 V
same,peak power density,"[2]; 1 M FMN, 1 M ferrocyanide",above 0.4 W cm^-2
